Measurements taken from article PMC8350375.

Sequences of proteins named here, by UniProt entry; tags and fusion partners are left off. A change or cut given only in a name is not applied to a line headed by its entry.
UniProt P62815: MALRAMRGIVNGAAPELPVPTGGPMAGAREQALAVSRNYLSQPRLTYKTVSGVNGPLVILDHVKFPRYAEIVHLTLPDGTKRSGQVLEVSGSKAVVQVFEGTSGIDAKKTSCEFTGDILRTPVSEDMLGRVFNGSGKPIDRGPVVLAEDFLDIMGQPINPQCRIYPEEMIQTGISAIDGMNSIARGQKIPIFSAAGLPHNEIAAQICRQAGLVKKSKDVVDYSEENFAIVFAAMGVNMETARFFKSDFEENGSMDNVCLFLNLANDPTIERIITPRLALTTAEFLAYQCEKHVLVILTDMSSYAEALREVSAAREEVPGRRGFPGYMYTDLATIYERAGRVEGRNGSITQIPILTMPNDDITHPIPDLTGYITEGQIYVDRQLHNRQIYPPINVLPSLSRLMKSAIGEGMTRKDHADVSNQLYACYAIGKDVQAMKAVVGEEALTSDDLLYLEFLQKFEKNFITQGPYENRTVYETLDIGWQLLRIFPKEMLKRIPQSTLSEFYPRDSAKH
UniProt Q2I6B1: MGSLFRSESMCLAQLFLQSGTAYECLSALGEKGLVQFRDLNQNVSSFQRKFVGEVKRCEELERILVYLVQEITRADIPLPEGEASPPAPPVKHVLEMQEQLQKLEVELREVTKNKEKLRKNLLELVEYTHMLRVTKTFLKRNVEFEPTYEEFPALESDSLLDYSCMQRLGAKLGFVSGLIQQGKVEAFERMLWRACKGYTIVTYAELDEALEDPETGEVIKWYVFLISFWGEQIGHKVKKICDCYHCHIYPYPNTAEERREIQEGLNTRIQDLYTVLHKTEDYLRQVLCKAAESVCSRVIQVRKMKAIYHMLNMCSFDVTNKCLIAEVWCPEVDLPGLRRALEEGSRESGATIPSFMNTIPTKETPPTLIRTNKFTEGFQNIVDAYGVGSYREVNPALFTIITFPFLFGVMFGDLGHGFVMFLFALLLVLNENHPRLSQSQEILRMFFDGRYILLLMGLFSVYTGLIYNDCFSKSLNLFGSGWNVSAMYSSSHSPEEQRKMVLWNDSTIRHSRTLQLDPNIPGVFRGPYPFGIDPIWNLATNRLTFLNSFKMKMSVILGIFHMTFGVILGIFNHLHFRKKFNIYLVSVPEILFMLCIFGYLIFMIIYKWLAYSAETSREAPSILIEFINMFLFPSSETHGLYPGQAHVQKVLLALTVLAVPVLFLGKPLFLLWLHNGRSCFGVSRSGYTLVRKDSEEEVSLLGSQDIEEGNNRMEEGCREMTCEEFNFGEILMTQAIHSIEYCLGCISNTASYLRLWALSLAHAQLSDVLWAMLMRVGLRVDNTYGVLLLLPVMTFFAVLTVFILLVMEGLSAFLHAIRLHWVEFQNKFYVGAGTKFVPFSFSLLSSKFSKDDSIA

Biological target: v-ATPase B2 subunit (V1 subcomplex), rat heart (rat (endogenous in heart)) (UniProt P62815)
Test: co-IP; endogenous proteins in rat heart lysates; IP against V1-B2, V0-d1 or mTOR, western blot for mTOR, V0-a2, V1-B2, V0-d1; rats on LFD, HFD or HFD/H-KLR (HFD decreased, H-KLR restored the co-IP)

binding: binds
Substance: v-ATPase a2 subunit (V0 subcomplex), rat heart (from UniProt Q2I6B1)

These are yes or no findings as the source states them, for the method shown. In cells and extracts the contact can be indirect. Binding calls can cover weak binding; strength is not graded here.
